PubChem BioAssay AID1224829 | NIAID | 2016

Aim: 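Secondary check of hits that alter LPS-induced p65 translocation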 (follow-up of hits)
Cells: mouse RAW264.7 G9 macrophage reporter cells
Knock-down reagent: single siRNA against mouse genes, 100 nM
Time to read-out: 2 days of siRNA knock-down, then 40 min of LPS before fixing
Conditions: LPS (Salmonella minnesota R595) at 10 ng/ml
Detection: 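Imaging of GFP-p65 after 40 min of LPS; nuclear over perinuclear ring intensity ratio, scaled to plate median and non-targeting control wells, given as z-score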
Scale: p65 translocation z-score: higher = more nuclear NF-kappaB p65 after LPS
Call rule: 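Active means the replicate-mean z-score lies beyond plus or minus 2, in either direction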
Calls: active = changed p65 translocation (either direction); inactive = no clear change
This is an unselected part of about 3,800 reagents tested. 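Calls cover raised and lowered translocation; gene median uses one vendor's three siRNAs; qiagen siRNAs acted more weakly than ambion siRNAs.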 Reagents against one gene are numbered here. Further read-outs or replicates are left out here. Reagent sequences are not shown.

no.	gene	reagent	siRNA vendor or control pool	p65 translocation z-score, replicate mean	call
1	Tex261 (testis expressed gene 261)	1	ambion single siRNA	-0.74	inactive
2	Tex261 (testis expressed gene 261)	2	ambion single siRNA	-3.01	active
3	Tex261 (testis expressed gene 261)	3	ambion single siRNA	-5.67	active
4	Tex261 (testis expressed gene 261)	4	qiagen single siRNA	2.67	active
5	Tex261 (testis expressed gene 261)	5	qiagen single siRNA	0.12	inactive
6	Tex261 (testis expressed gene 261)	6	qiagen single siRNA	0.455	inactive
7	Acox2 (acyl-Coenzyme A oxidase 2, branched chain)	1	ambion single siRNA	0.826	inactive
8	Acox2 (acyl-Coenzyme A oxidase 2, branched chain)	2	ambion single siRNA	-0.95	inactive
9	Acox2 (acyl-Coenzyme A oxidase 2, branched chain)	3	ambion single siRNA	-5.05	active
10	Acox2 (acyl-Coenzyme A oxidase 2, branched chain)	4	qiagen single siRNA	0.143	inactive
11	Acox2 (acyl-Coenzyme A oxidase 2, branched chain)	5	qiagen single siRNA	3.1	active
12	Acox2 (acyl-Coenzyme A oxidase 2, branched chain)	6	qiagen single siRNA	2.51	active
13	Card6 (caspase recruitment domain family, member 6)	1	qiagen single siRNA	0.409	inactive
14	Card6 (caspase recruitment domain family, member 6)	2	qiagen single siRNA	-0.581	inactive
15	Card6 (caspase recruitment domain family, member 6)	3	qiagen single siRNA	-3.11	active
16	Msn (moesin)	1	ambion single siRNA	2.17	active
17	Msn (moesin)	2	ambion single siRNA	-0.495	inactive
18	Msn (moesin)	3	ambion single siRNA	-4.1	active
19	Msn (moesin)	4	qiagen single siRNA	2.8	active
20	Msn (moesin)	5	qiagen single siRNA	2.94	active
21	Msn (moesin)	6	qiagen single siRNA	-0.647	inactive

In a second layout: entries from further up.
Acox2 (acyl-Coenzyme A oxidase 2, branched chain) #4, siRNA vendor or control pool qiagen single siRNA — p65 translocation z-score, replicate mean: 0.143; call: inactive
Acox2 (acyl-Coenzyme A oxidase 2, branched chain) #5, siRNA vendor or control pool qiagen single siRNA — p65 translocation z-score, replicate mean: 3.1; call: active
Acox2 (acyl-Coenzyme A oxidase 2, branched chain) #6, siRNA vendor or control pool qiagen single siRNA — p65 translocation z-score, replicate mean: 2.51; call: active
